These are yes or no findings as the source states them, for the method shown. Binding seen in cells or lysates may run through a third protein. Here binding means that the protein was enriched with, or labelled near, the bait; the list need not be complete.
Biological target: PINK1-FLAG (UniProt Q9BXM7)
Experiment: affinity purification with mass spectrometry; PINK1-FLAG expressed in HEK293 cells and immunoprecipitated; interacting proteins determined by mass spectrometry-based interactomics

The chains behind the UniProt entries cited, without tags or fusion partners. Residues count along the entry.
UniProt Q9BXM7, residues 78-581: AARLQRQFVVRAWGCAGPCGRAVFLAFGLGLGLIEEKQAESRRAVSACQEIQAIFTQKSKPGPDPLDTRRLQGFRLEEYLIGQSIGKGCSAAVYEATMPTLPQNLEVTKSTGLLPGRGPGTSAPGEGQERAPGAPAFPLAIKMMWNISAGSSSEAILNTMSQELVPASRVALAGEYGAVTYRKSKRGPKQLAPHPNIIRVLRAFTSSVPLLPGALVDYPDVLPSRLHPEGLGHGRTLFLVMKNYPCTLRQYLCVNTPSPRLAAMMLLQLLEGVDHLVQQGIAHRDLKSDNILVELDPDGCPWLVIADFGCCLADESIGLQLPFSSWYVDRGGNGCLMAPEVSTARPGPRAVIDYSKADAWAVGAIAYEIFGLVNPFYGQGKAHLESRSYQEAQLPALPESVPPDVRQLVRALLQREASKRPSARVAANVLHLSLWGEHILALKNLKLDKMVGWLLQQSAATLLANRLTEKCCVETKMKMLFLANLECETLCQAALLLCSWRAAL
UniProt O95202, residues 116-739: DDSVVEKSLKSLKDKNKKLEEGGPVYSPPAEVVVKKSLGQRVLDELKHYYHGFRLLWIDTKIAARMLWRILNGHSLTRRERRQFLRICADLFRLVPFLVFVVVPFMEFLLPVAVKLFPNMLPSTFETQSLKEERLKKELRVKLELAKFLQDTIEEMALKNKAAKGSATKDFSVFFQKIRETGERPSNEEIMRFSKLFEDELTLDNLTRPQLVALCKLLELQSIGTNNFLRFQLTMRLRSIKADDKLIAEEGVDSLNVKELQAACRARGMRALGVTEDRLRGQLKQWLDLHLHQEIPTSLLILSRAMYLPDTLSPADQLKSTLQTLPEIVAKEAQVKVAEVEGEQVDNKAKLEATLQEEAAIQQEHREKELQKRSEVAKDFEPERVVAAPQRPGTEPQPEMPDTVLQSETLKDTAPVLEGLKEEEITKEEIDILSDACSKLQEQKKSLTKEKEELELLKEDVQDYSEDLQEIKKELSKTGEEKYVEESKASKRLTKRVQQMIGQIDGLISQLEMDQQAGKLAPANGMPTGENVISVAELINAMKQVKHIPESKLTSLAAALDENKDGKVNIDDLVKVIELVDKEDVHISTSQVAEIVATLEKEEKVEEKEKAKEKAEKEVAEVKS

leucine zipper-EF-hand containing transmembrane protein 1 (LETM1), found with PINK1-FLAG from HEK293 cells (from UniProt O95202-1 116-739)
binding: binds
